Measurements reported in the supplement of paper PMC10849652.
The other results are listed elsewhere or left out.

By UniProt entry, the sequences of proteins in these tests, tags left out. Where a name states a change or a piece, a line headed by the entry shows the natural chain unless it says otherwise.
UniProt P49023, whole entry, looked up: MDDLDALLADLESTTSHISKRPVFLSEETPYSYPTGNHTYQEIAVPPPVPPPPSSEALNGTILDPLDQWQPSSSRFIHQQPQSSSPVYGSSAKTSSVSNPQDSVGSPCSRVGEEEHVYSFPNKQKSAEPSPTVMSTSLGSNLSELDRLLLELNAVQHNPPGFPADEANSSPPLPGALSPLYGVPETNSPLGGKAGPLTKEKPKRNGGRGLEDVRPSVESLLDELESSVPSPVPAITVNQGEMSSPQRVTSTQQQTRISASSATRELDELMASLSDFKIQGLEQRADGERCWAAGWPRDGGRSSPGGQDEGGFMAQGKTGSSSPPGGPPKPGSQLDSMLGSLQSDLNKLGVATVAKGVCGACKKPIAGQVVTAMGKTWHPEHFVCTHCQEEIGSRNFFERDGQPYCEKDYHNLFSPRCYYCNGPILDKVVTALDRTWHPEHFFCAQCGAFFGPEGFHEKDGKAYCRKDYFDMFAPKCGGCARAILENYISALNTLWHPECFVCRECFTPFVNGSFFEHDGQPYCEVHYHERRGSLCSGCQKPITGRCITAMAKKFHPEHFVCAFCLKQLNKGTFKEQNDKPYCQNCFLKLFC
UniProt Q9H0K6: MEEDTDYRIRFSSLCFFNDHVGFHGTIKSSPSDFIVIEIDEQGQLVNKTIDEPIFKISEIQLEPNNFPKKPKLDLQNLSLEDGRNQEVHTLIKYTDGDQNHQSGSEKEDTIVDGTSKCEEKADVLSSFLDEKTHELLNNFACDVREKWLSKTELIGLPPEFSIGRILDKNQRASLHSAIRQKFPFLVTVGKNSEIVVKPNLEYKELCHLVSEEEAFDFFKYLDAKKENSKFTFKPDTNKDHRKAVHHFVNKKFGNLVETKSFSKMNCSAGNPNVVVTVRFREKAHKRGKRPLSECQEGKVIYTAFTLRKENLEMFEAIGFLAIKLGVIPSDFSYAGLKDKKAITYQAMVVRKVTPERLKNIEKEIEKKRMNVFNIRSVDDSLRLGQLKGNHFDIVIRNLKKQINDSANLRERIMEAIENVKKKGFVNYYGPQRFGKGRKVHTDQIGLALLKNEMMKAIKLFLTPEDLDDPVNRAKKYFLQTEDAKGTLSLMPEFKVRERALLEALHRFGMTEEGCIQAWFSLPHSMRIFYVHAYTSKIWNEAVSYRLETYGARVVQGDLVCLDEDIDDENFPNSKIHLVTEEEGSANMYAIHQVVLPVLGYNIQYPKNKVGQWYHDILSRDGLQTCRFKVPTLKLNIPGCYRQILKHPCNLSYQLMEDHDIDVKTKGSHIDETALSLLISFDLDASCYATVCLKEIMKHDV
UniProt Q9BT73: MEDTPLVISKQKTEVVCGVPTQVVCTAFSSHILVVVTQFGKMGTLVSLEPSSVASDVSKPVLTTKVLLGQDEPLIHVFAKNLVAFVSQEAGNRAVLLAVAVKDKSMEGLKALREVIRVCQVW
UniProt Q5JS54: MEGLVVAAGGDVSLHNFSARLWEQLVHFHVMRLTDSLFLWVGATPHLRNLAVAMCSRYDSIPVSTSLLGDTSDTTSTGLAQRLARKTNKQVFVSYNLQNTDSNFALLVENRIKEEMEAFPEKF
UniProt P18031: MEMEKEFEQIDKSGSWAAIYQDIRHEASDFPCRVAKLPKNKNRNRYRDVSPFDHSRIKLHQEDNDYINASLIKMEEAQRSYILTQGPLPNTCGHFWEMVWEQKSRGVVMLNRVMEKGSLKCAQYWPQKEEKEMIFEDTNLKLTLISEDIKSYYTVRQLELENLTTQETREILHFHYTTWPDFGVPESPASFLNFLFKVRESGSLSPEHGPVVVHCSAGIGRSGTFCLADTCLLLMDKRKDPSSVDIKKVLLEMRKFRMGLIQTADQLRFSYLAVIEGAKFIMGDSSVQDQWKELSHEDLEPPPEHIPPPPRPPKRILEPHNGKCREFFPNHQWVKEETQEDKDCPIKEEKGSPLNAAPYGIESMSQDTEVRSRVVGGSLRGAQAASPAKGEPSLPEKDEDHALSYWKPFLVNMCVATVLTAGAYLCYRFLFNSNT
UniProt Q9UL46, whole entry, looked up: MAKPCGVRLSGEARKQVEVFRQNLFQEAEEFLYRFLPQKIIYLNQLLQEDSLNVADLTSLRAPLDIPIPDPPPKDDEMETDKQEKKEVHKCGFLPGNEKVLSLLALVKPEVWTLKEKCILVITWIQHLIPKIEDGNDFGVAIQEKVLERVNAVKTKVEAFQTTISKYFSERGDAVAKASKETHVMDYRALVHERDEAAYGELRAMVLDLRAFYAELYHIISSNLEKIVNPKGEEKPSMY
UniProt Q96BW5: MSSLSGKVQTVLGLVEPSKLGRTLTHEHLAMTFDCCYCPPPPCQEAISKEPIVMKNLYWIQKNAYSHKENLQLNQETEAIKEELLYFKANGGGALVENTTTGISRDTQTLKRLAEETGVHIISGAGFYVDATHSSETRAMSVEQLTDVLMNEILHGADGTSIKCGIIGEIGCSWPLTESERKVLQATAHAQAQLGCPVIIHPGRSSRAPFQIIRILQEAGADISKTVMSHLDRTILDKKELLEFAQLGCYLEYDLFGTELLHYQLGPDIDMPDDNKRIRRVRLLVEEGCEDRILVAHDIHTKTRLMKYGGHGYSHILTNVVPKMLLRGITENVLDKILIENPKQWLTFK
UniProt Q9NR77: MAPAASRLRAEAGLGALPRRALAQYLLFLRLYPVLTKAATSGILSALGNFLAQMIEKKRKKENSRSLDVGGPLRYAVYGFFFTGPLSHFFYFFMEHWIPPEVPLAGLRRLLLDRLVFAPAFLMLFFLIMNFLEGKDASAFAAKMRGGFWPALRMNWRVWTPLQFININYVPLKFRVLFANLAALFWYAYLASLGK
UniProt P25789: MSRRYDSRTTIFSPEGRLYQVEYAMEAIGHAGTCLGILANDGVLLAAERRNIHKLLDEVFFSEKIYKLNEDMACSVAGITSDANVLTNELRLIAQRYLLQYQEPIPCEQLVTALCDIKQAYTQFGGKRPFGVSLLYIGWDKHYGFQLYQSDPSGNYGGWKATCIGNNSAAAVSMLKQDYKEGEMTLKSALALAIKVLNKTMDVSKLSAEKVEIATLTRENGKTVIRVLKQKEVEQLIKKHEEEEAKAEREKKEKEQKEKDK
UniProt P55036: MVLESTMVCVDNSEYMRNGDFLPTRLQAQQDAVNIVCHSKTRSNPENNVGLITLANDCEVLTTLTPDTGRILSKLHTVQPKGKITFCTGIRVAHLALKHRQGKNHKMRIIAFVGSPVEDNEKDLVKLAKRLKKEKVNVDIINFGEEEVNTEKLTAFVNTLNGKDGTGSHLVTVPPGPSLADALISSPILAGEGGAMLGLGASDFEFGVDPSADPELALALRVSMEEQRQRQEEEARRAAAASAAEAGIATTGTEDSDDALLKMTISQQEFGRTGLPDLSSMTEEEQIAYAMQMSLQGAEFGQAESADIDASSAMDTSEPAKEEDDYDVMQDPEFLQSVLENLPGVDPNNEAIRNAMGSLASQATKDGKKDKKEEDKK
UniProt Q96QR8: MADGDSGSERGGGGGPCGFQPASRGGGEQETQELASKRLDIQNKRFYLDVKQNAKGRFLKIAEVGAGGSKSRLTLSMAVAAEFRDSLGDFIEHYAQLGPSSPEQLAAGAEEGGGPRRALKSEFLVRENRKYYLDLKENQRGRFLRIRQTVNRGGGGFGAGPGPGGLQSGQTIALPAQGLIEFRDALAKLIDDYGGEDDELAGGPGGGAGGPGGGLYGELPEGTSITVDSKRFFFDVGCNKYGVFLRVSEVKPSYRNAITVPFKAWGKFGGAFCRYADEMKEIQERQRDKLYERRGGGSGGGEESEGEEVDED
UniProt P28074: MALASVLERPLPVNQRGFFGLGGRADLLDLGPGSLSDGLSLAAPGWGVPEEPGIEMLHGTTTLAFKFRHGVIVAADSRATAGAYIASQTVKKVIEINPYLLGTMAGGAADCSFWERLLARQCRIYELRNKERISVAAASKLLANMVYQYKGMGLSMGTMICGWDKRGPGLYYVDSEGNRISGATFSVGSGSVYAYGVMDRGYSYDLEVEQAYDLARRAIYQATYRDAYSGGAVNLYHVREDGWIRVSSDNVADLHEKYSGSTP
UniProt Q9H939: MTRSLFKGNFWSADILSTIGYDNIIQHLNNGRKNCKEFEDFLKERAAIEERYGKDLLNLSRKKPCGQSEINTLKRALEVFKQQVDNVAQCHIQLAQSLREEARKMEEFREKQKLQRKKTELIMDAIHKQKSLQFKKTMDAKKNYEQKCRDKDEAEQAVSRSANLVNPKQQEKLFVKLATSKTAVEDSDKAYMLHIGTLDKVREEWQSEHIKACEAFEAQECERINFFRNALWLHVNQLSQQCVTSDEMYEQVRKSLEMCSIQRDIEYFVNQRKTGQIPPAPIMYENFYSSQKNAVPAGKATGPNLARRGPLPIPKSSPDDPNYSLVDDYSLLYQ
UniProt Q8TAA3: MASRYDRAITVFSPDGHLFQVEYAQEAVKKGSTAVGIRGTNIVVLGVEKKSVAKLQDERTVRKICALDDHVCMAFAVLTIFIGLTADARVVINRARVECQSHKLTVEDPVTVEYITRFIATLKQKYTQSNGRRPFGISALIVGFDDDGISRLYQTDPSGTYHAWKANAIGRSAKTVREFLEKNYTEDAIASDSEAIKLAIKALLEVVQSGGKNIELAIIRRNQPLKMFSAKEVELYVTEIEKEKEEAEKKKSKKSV
UniProt Q9BXR0: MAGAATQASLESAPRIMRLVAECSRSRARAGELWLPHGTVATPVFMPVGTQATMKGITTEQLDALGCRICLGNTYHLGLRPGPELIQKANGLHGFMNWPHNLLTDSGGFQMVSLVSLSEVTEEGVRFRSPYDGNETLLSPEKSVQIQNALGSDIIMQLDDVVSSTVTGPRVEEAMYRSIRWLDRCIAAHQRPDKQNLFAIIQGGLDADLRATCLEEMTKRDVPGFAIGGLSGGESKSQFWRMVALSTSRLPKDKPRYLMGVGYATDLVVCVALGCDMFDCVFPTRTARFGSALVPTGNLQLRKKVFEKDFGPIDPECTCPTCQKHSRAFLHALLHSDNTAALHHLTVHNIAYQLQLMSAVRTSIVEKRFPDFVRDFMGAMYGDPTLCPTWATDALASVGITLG

Tests used:
Assay in all cases: log2 fold change, soluble protein after heating vs DMSO (PISA); higher = thermal stabilisation; K562 cells, 10 uM, 30 min; active = over 0.2 and 3.5 SD of the protein, either way, in both replicates (recomputed)
[1] = compound: COC1=CC=C(C=C1)CN2C=CC3=C2C=C(C=C3)C(=O)NO
Summary of the method: (§1)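 For each measurement, 10 μM compound was applied for 30 min to K562 cells at 2×10^6 cells/mL. Aliquots were heated for 3 min across 48°C-58°C, pooled, and extracted in PBS with 0.5% NP-40 at 4°C; the supernatant after 21,000xg for 90 min was soluble protein. This was quantified by TMTpro 16plex LC-MS/MS with channel sums equalised, and thermal stability was reported relative to control samples from duplicates, on a log2 fold-change scale.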

filanesib = compound: CON(C)C(=O)N1N=C(c2cc(F)ccc2F)S[C@@]1(CCCN)c1ccccc1 [filanesib]
Summary of the method: as §1

zotarolimus = compound: CO[C@H]1C[C@@H]2CC[C@@H](C)[C@@](O)(O2)C(=O)C(=O)N2CCCC[C@H]2C(=O)O[C@H]([C@H](C)C[C@@H]2CC[C@H](n3cnnn3)[C@H](OC)C2)CC(=O)[C@H](C)/C=C(\C)[C@@H](O)[C@@H](OC)C(=O)[C@H](C)C[C@H](C)/C=C/C=C/C=C/1C [zotarolimus]
Summary of the method: as §1

idasanutlin = compound: COc1cc(C(=O)O)ccc1NC(=O)[C@@H]1N[C@@H](CC(C)(C)C)[C@](C#N)(c2ccc(Cl)cc2F)[C@H]1c1cccc(Cl)c1F [idasanutlin]
Summary of the method: as §1

alisertib = compound: COc1cc(Nc2ncc3c(n2)-c2ccc(Cl)cc2C(c2c(F)cccc2OC)=NC3)ccc1C(=O)O [alisertib]
Summary of the method: as §1

[2] = compound: COc1cc2nc(-c3cc(F)ccc3O)nc(N[C@@H]3CNC[C@H]3C(C)(C)O)c2cc1OC
Summary of the method: as §1

gefitinib = compound: COc1cc2ncnc(Nc3ccc(F)c(Cl)c3)c2cc1OCCCN1CCOCC1 [gefitinib]
Summary of the method: as §1

[3] = compound: COc1cccc2cc(-c3nc([C@H]4CC[C@H](C(=O)O)CC4)n4ncnc(N)c34)[nH]c12
Summary of the method: as §1

lapatinib = compound: CS(=O)(=O)CCNCc1ccc(-c2ccc3ncnc(Nc4ccc(OCc5cccc(F)c5)c(Cl)c4)c3c2)o1 [lapatinib]
Summary of the method: as §1

pictilisib = compound: CS(=O)(=O)N1CCN(Cc2cc3nc(-c4cccc5[nH]ncc45)nc(N4CCOCC4)c3s2)CC1 [pictilisib]
Summary of the method: as §1

[4] = compound: CS(=O)(=O)c1ccc(-c2cnc(N)c(C(=O)Nc3ccccc3)n2)cc1
Summary of the method: as §1

crizotinib = compound: C[C@@H](Oc1cc(-c2cnn(C3CCNCC3)c2)cnc1N)c1c(Cl)ccc(F)c1Cl [crizotinib]
Summary of the method: as §1

[5] = compound: C[C@@H]1COCCN1C2=NC(=NC(=C2)C3(CC3)S(=O)(=O)C)C4=C5C=CNC5=CC=C4
Summary of the method: as §1

[6] = compound: C[C@H](C1=CC=C(C=C1)C(=O)NC2=C3C=CNC3=NC=C2)N
Summary of the method: as §1

duvelisib = compound: C[C@H](Nc1ncnc2nc[nH]c12)c1cc2cccc(Cl)c2c(=O)n1-c1ccccc1 [duvelisib]
Summary of the method: as §1

gandotinib = compound: Cc1cc(Nc2cc(CN3CCOCC3)c3nc(C)c(Cc4ccc(Cl)cc4F)n3n2)n[nH]1 [gandotinib]
Summary of the method: as §1

tozasertib = compound: Cc1cc(Nc2cc(N3CCN(C)CC3)nc(Sc3ccc(NC(=O)C4CC4)cc3)n2)n[nH]1 [tozasertib]
Summary of the method: as §1

[7] = compound: Cc1cc(SCc2sc(-c3ccc(C(F)(F)F)cc3)nc2C)ccc1OCC(=O)O
Summary of the method: as §1

doramapimod = compound: Cc1ccc(-n2nc(C(C)(C)C)cc2NC(=O)Nc2ccc(OCCN3CCOCC3)c3ccccc23)cc1 [doramapimod]
Summary of the method: as §1

ispinesib = compound: Cc1ccc(C(=O)N(CCCN)[C@@H](c2nc3cc(Cl)ccc3c(=O)n2Cc2ccccc2)C(C)C)cc1 [ispinesib]
Summary of the method: as §1

Measured: log2 fold change

PXN (UniProt P49023)
inactive: [1] 0.068 | filanesib -0.045 | zotarolimus 0.013 | idasanutlin 0.022 | alisertib -0.026 | [2] -0.061 | gefitinib -0.015 | [3] 0.036 | lapatinib -0.019 | pictilisib -0.038 | [4] -0.059 | crizotinib -0.022 | [5] 0.043 | [6] -0.04 | duvelisib 0.01 | gandotinib 0.012 | tozasertib -0.02 | [7] -0.034 | doramapimod -0.091 | ispinesib 0.038

PUS7L (UniProt Q9H0K6)
inactive: [1] 0.02 | filanesib 0.01 | zotarolimus 0.001 | idasanutlin 0.044 | alisertib -0.03 | [2] 0.038 | gefitinib 0.026 | [3] 0.024 | lapatinib 0.037 | pictilisib -0.047 | [4] -0.006 | crizotinib 0.028 | [5] 0.065 | [6] 0.004 | duvelisib -0.031 | gandotinib -0.002 | tozasertib 0.012 | [7] -0.014 | doramapimod 0.006 | ispinesib -0.032

PSMG3 (UniProt Q9BT73)
inactive: [1] -0.008 | filanesib -0.008 | zotarolimus -0.053 | idasanutlin -0.042 | alisertib -0.144 | [2] -0.036 | gefitinib 0.021 | [3] 0.01 | lapatinib 0.011 | pictilisib 0.122 | [4] -0.004 | crizotinib 0.059 | [5] 0.069 | [6] -0.088 | duvelisib 0.073 | gandotinib -0.003 | tozasertib -0.063 | [7] 0.033 | doramapimod -0.027 | ispinesib 0.085

PSMG4 isoform 2 (UniProt Q5JS54)
inactive: [1] -0.13 | filanesib -0.069 | zotarolimus 0.071 | idasanutlin 0.102 | alisertib -0.166 | [2] -0.169 | gefitinib -0.063 | [3] -0.005 | lapatinib 0.095 | pictilisib -0.147 | [4] -0.107 | crizotinib 0.142 | [5] -0.018 | [6] -0.107 | duvelisib 0.045 | gandotinib 0.072 | tozasertib -0.014 | [7] -0.012 | doramapimod 0.016 | ispinesib 0.129

PTPN1 (UniProt P18031)
inactive: [1] 0.003 | filanesib 0.186 | zotarolimus 0.059 | idasanutlin 0.057 | alisertib 0.037 | [2] 0.144 | gefitinib 0.072 | [3] -0.129 | lapatinib 0.024 | pictilisib -0.021 | [4] 0.012 | crizotinib -0.091 | [5] -0.033 | [6] 0.232 | duvelisib -0.03 | gandotinib -0.042 | tozasertib 0.052 | [7] 0.145 | doramapimod 0.108 | ispinesib -0.086

PSME2 (UniProt Q9UL46)
inactive: [1] -0.095 | filanesib -0.037 | zotarolimus 0.002 | idasanutlin -0.021 | alisertib -0.042 | [2] -0.067 | gefitinib 0.024 | [3] 0.007 | lapatinib -0.017 | pictilisib -0.035 | [4] 0.019 | crizotinib -0.027 | [5] 0.076 | [6] -0.127 | duvelisib 0.031 | gandotinib -0.205 | tozasertib -0.023 | [7] 0.025 | doramapimod -0.016 | ispinesib 0.025

PTPN11 isoform 1 (UniProt Q06124)
inactive: [1] 0.005 | filanesib -0.017 | zotarolimus 0.039 | idasanutlin -0.009 | alisertib -0.072 | [2] 0.039 | gefitinib 0.014 | [3] -0.001 | lapatinib -0.019 | pictilisib -0.01 | [4] -0.002 | crizotinib 0.029 | [5] 0.053 | [6] -0.061 | duvelisib 0.044 | gandotinib 0.026 | tozasertib 0.003 | [7] 0.023 | doramapimod 0.008 | ispinesib 0.045

PTER (UniProt Q96BW5)
inactive: [1] 0 | filanesib -0.067 | zotarolimus -0.011 | idasanutlin 0.005 | alisertib -0.014 | [2] -0.017 | gefitinib -0.005 | [3] 0.015 | lapatinib -0.002 | pictilisib 0.023 | [4] 0.002 | crizotinib 0.023 | [5] 0.05 | [6] -0.078 | duvelisib 0.036 | gandotinib 0.029 | tozasertib -0.055 | [7] -0.018 | doramapimod 0.003 | ispinesib 0.031

PXMP2 (UniProt Q9NR77)
inactive: [1] -0.013 | filanesib -0.024 | zotarolimus -0.033 | idasanutlin -0.05 | alisertib -0.071 | [2] -0.024 | gefitinib 0.042 | [3] 0.09 | lapatinib 0.01 | pictilisib 0.053 | [4] -0.007 | crizotinib 0.066 | [5] 0.078 | [6] -0.078 | duvelisib 0.052 | gandotinib 0.02 | tozasertib -0.041 | [7] -0.024 | doramapimod -0.014 | ispinesib 0.031

PSMA4 (UniProt P25789)
inactive: [1] -0.015 | filanesib 0.04 | zotarolimus -0.028 | idasanutlin 0.006 | alisertib -0.089 | [2] -0.023 | gefitinib -0.033 | [3] -0.002 | lapatinib 0.03 | pictilisib -0.019 | [4] -0.022 | crizotinib 0.042 | [5] -0.013 | [6] 0.073 | duvelisib -0.046 | gandotinib 0.065 | tozasertib 0.024 | [7] -0.027 | doramapimod 0.017 | ispinesib 0.012

PSMD4 (UniProt P55036)
inactive: [1] -0.006 | filanesib 0.05 | zotarolimus 0.002 | idasanutlin 0.059 | alisertib -0.098 | [2] -0.046 | gefitinib -0.027 | [3] -0.043 | lapatinib 0.07 | pictilisib -0.109 | [4] 0.024 | crizotinib 0.011 | [5] -0.057 | [6] 0.047 | duvelisib -0.044 | gandotinib -0.021 | tozasertib 0.029 | [7] 0.014 | doramapimod 0.005 | ispinesib 0.026

PURB (UniProt Q96QR8)
inactive: [1] -0.242 | filanesib 0.448 | zotarolimus -0.081 | idasanutlin 0.152 | alisertib -0.066 | [2] -0.068 | gefitinib -0.054 | [3] -0.119 | lapatinib 0.123 | pictilisib -0.227 | [4] 0.034 | crizotinib 0.066 | [5] -0.559 | [6] 0.257 | duvelisib -0.167 | gandotinib 0.155 | tozasertib 0.033 | [7] -0.05 | doramapimod 0.083 | ispinesib -0.191

PSMB5 (UniProt P28074)
inactive: [1] 0.038 | filanesib -0.017 | zotarolimus -0.02 | idasanutlin 0.014 | alisertib -0.068 | [2] -0.047 | gefitinib -0.041 | [3] -0.017 | lapatinib 0.079 | pictilisib -0.036 | [4] -0.047 | crizotinib 0.037 | [5] -0.067 | [6] 0.015 | duvelisib -0.086 | gandotinib 0.049 | tozasertib 0.023 | [7] -0.011 | doramapimod -0.003 | ispinesib 0.058

PSTPIP2 (UniProt Q9H939)
inactive: [1] 0.035 | filanesib -0.046 | zotarolimus 0.021 | idasanutlin -0.052 | alisertib 0.003 | [2] 0.056 | gefitinib 0.025 | [3] -0.028 | lapatinib -0.022 | pictilisib 0.073 | [4] 0.056 | crizotinib 0.054 | [5] -0.042 | [6] 0.083 | duvelisib 0.011 | gandotinib 0.028 | tozasertib 0 | [7] 0.011 | doramapimod 0.011 | ispinesib -0.036

PSMA8 (UniProt Q8TAA3)
inactive: [1] -0.032 | filanesib 0.039 | zotarolimus -0.007 | idasanutlin 0.005 | alisertib -0.074 | [2] -0.02 | gefitinib -0.038 | [3] 0.026 | lapatinib -0.011 | pictilisib 0.089 | [4] 0.005 | crizotinib 0.049 | [5] -0.05 | [6] 0.044 | duvelisib 0.007 | gandotinib 0.026 | tozasertib 0.017 | [7] 0.026 | doramapimod 0 | ispinesib 0.059

QTRT1 (UniProt Q9BXR0)
inactive: [1] 0.031 | filanesib -0.036 | zotarolimus 0.024 | idasanutlin -0.005 | alisertib -0.004 | [2] -0.014 | gefitinib -0.002 | [3] 0.029 | lapatinib -0.008 | pictilisib 0.033 | [4] -0.012 | crizotinib 0.035 | [5] 0.027 | [6] -0.09 | duvelisib 0.06 | gandotinib 0 | tozasertib -0.017 | [7] -0.018 | doramapimod -0.002 | ispinesib 0.022
